The target in assay [1] is β-catenin (endogenous, primary tubular epithelial cells) (mouse (endogenous in PTCs)) (UniProt Q02248). The experiment in a line: co-IP; one partner exogenous (Flag-tagged β-catenin WT or C300S, or exogenous APT1) in transfected PTCs; IP lysis buffer, 1 ug primary antibody overnight at 4 °C, protein A/G PLUS-agarose, immunoblot.
The target is the same in assay [2]. The experiment in a line: co-IP; endogenous proteins in lysates of mouse primary tubular cells (PTCs); IP lysis buffer, 1 ug primary antibody overnight at 4 °C, protein A/G PLUS-agarose, immunoblot; cells with DHHC9 siRNA or adenovirus, APT1 siRNA or plasmid.
Assay [3] addresses Flag-tagged WT β-catenin (UniProt Q02248). The assay can be described thus: co-IP; one partner exogenous (Flag-tagged β-catenin WT or C300S, or exogenous APT1) in transfected PTCs; IP lysis buffer, 1 ug primary antibody overnight at 4 °C, protein A/G PLUS-agarose, immunoblot. In general terms: Immunoblotting shows a protein as a band on a membrane.
Assay [4] has as its target β-catenin (co-precipitated with exogenous DHHC9, Fig. 5d) (UniProt P35222). The experiment in a line: co-IP; exogenous DHHC9 in HEK 293 A cells after treatment with lactacystin at 20 mM for 6 hours (legend; the text says PTCs); IP lysis buffer, 1 ug primary antibody overnight at 4 °C, protein A/G PLUS-agarose, immunoblot.

Protein sequences, listed by entry. Tags and fused reporters are not part of them.
UniProt Q02248: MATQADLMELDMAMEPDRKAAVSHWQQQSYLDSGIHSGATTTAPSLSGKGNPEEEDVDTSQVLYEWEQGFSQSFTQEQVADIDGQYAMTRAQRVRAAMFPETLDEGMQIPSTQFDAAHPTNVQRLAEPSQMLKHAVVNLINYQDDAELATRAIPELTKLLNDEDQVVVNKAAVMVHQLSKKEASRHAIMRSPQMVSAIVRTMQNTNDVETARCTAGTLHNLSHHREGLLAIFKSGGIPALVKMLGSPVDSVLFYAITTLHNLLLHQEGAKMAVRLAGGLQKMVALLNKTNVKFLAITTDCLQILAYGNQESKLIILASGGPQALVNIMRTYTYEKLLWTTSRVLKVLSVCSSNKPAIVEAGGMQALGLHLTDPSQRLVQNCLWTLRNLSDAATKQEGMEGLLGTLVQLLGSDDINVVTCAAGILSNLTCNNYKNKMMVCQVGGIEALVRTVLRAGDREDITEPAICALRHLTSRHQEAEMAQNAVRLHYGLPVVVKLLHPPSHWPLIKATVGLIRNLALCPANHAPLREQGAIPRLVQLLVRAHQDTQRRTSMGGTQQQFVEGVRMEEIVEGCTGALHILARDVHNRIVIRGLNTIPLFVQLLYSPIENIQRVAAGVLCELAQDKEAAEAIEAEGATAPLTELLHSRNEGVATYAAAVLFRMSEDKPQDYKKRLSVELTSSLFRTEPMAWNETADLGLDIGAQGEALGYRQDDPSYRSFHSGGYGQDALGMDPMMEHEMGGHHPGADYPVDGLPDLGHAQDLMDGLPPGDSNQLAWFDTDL
UniProt P35222: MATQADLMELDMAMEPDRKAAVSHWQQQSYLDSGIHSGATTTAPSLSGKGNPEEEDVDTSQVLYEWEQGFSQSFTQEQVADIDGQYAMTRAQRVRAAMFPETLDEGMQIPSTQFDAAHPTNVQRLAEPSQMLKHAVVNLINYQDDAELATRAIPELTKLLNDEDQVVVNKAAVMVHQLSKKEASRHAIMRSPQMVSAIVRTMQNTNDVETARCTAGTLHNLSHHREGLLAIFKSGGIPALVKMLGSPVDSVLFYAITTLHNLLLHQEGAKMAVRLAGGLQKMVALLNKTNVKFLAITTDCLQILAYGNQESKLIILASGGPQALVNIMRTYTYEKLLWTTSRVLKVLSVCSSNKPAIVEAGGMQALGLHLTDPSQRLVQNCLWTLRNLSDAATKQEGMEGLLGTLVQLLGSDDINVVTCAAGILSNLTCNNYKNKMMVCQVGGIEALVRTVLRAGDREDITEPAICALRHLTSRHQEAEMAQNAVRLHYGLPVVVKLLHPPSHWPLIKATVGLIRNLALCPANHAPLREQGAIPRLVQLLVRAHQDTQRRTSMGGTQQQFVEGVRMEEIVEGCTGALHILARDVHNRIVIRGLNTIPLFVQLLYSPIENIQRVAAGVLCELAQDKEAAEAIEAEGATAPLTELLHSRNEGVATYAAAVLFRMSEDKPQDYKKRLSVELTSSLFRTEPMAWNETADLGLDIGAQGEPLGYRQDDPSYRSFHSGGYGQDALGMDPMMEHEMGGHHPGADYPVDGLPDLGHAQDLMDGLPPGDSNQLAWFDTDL
UniProt P97823: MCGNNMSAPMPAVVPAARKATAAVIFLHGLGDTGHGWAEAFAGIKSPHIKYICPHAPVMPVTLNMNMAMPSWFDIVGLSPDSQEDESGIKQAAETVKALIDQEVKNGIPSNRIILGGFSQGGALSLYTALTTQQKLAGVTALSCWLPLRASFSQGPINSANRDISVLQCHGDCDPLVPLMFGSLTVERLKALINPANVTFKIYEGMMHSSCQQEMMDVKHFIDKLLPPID
UniProt O35625: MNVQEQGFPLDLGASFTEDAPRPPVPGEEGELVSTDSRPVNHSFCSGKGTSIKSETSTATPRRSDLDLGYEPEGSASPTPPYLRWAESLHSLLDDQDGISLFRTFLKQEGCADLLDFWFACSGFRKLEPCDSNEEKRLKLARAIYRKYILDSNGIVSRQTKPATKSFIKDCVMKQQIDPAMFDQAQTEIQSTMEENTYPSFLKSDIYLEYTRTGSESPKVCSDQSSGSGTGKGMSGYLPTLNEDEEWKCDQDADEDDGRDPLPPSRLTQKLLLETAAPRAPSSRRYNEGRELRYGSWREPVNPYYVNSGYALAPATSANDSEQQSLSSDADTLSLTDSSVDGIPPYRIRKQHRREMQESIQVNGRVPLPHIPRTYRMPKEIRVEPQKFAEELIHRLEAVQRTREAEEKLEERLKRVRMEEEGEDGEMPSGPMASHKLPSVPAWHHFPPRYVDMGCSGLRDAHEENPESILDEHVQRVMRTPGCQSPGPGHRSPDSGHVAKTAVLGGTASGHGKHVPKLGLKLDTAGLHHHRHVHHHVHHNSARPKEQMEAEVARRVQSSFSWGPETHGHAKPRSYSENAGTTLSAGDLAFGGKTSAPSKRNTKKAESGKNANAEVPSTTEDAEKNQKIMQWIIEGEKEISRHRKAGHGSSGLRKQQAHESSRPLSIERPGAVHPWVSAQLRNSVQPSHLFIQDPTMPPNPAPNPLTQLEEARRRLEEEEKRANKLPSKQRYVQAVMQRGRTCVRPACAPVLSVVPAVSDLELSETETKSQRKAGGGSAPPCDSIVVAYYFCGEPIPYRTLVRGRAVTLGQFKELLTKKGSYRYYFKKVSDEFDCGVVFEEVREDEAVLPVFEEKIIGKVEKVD
UniProt Q8BK63: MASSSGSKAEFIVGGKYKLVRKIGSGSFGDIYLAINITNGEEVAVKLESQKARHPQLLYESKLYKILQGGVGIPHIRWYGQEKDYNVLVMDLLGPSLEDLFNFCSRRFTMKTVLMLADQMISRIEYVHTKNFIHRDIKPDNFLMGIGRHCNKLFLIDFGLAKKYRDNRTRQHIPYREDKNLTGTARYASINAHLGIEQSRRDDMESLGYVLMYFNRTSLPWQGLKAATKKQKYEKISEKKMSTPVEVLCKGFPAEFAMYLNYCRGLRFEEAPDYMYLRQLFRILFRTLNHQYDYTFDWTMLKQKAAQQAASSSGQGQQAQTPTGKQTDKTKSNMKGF
UniProt P59268: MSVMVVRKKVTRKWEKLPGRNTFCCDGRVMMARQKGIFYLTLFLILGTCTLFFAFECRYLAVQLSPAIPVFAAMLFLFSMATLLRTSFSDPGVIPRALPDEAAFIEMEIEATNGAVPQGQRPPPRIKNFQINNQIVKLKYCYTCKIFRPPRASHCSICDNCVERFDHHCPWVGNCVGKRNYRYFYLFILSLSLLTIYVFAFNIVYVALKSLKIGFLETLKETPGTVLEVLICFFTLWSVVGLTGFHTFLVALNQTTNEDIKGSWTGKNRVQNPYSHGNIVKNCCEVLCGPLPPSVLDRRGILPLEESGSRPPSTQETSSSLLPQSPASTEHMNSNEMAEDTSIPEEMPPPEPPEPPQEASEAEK

Results are given in words; binding and its absence hold for the method and conditions named. Binding seen in cells or lysates may run through a third protein. Some results given as binding are weak or reduced against the parent protein; the word gives no strength.

Take “exogenous APT1 (from UniProt P97823 1-230) (enzyme)”: the binding result in assay [1] is on record as “binds”.
For the substance Axin (from UniProt O35625 1-863), the binding result in assay [2] and in assay [3] was “binds” in each case.
In the case of “casein kinase (CK) 1α (from UniProt Q8BK63 1-337) (enzyme)”, the binding result in assay [2] is on record as “binds”.
On to “exogenous DHHC9 (from UniProt P59268 1-364) (enzyme)”, for which the binding result in assay [4] is “binds”.
With “acyl protein thioesterase 1 (APT1), endogenous (from UniProt P97823 1-230) (enzyme)”, the binding result in assay [2] is given as “binds”.

Source of the values: publication PMC10590414.
